Among the data in PubChem BioAssay AID188 (DTP/NCI, 2004) are survivor count values, retold here.

This test concerns CD2F1 mice, nontumored, toxicity/survival. Put plainly: NCI In Vivo Anticancer Drug Screen. Data for tumor model Nontumored Animals (Toxicity Test) in CD2F1 (CDF1) mice.
Where [1] appears, read: dose: 1.0 mg/kg/injection, schedule: Q01DX001 (ip), vehicle: other.
[2] abbreviates: dose: 10.0 mg/kg/injection, schedule: Q01DX001 (ip), vehicle: other.
Setting [3] is: dose: 100.0 mg/kg/injection, schedule: Q01DX001 (ip), vehicle: other.
Where [4] appears, read: dose: 25.0 mg/kg/injection, schedule: Q01DX009 (ip), vehicle: saline.
Setting [5] is: dose: 50.0 mg/kg/injection, schedule: Q01DX009 (ip), vehicle: saline.
The mark [6] stands for this setting: dose: 100.0 mg/kg/injection, schedule: Q01DX009 (ip), vehicle: saline.
[7] abbreviates: dose: 1.0 mg/kg/injection, schedule: Q01DX001 (ip), vehicle: DMSO.
Where [8] appears, read: dose: 10.0 mg/kg/injection, schedule: Q01DX001 (ip), vehicle: DMSO.
[9] abbreviates: dose: 100.0 mg/kg/injection, schedule: Q01DX001 (ip), vehicle: DMSO.

Shown are survivors of the treated group in tumour-free mice. Survivors were counted at the toxicity check, usually on the fifth day, unless a day is given; later deaths do not show. Schedules are NCI's codes, taken here to give the interval after Q, in days (D) or hours (H), and the number of doses after X.

Regarding `CN(C)N=Nc1ccc(NC(N)=O)cc1`, the survivor count by setting is: (dose: 30.0 mg/kg/injection, schedule: Q01DX009 (ip), vehicle: Klucel (hydroxypropylcellulose) (HPC)) 9 of 10; (dose: 44.0 mg/kg/injection, schedule: Q01DX009 (ip), vehicle: Klucel (hydroxypropylcellulose) (HPC)) 10 of 10; (dose: 67.0 mg/kg/injection, schedule: Q01DX009 (ip), vehicle: Klucel (hydroxypropylcellulose) (HPC)) 10 of 10; (dose: 100.0 mg/kg/injection, schedule: Q01DX009 (ip), vehicle: Klucel (hydroxypropylcellulose) (HPC)) 5 of 10; (dose: 150.0 mg/kg/injection, schedule: Q01DX009 (ip), vehicle: Klucel (hydroxypropylcellulose) (HPC)) 0 of 10.

In the case of `CC(=O)Nc1ncc2ccccc2c1-c1ccc(NC(=O)CCN(CCCl)CCCl)cc1`, the survivor count reads like this: under setting [1], 2 of 2; under setting [2], 2 of 2; under setting [3], 0 of 2.

As for `CN(C)N=Nc1ccccc1`, the survivor count runs as follows: (dose: 25.0 mg/kg/injection, schedule: Q01DX009 (ip), vehicle: Klucel (hydroxypropylcellulose) (HPC)) 7 of 10; (dose: 37.0 mg/kg/injection, schedule: Q01DX009 (ip), vehicle: Klucel (hydroxypropylcellulose) (HPC)) 10 of 10; (dose: 55.0 mg/kg/injection, schedule: Q01DX009 (ip), vehicle: Klucel (hydroxypropylcellulose) (HPC)) 10 of 10; (dose: 83.0 mg/kg/injection, schedule: Q01DX009 (ip), vehicle: Klucel (hydroxypropylcellulose) (HPC)) 9 of 10; (dose: 125.0 mg/kg/injection, schedule: Q01DX009 (ip), vehicle: Klucel (hydroxypropylcellulose) (HPC)) 1 of 10.

In the case of `O=C1C=CN(C2OC(CO)C(O)C2O)C(=O)C1` (stereo not drawn), the survivor count (dose: 12.5 mg/kg/injection, schedule: Q01DX009 (ip), vehicle: saline) is on record as 4 of 4; the survivor count under setting [4] was 4 of 4; the survivor count under setting [5] was 4 of 4; the survivor count (dose: 75.0 mg/kg/injection, schedule: Q01DX009 (ip), vehicle: saline) was 4 of 4; the survivor count under setting [6] is reported as 4 of 4.

`CC(=O)Nc1ccc(-c2c(N)ncc3ccccc23)cc1`: the survivor count runs as follows: under setting [7], 2 of 2; under setting [8], 2 of 2; under setting [9], 2 of 2.

For `Nc1nc(N)c(N)c(/C=C/c2ccccc2)n1`, the survivor count by setting is: (dose: 1.0 mg/kg/injection, schedule: Q01DX001 (ip), vehicle: water) 2 of 2; (dose: 10.0 mg/kg/injection, schedule: Q01DX001 (ip), vehicle: water) 0 of 2; (dose: 100.0 mg/kg/injection, schedule: Q01DX001 (ip), vehicle: water) 0 of 2.

As for `C[C@]12C=CC(=O)C=C1CC[C@@H]1[C@@H]2C(=O)C[C@@]2(C)[C@H]1CC[C@]2(O)C(=O)CO`, the survivor count reads like this: (dose: 6.25 mg/kg/injection, schedule: Q03HX008 (ip), vehicle: saline) 8 of 8; (dose: 6.25 mg/kg/injection, schedule: Q03HX016 (ip), vehicle: saline) 8 of 8; (dose: 6.25 mg/kg/injection, schedule: Q03HX024 (ip), vehicle: saline) 8 of 8; (dose: 12.5 mg/kg/injection, schedule: Q03HX008 (ip), vehicle: saline) 8 of 8; (dose: 12.5 mg/kg/injection, schedule: Q03HX016 (ip), vehicle: saline) 8 of 8; (dose: 12.5 mg/kg/injection, schedule: Q03HX024 (ip), vehicle: saline) 8 of 8. In addition, the survivor count under setting [4] was 8 of 8; the survivor count (dose: 25.0 mg/kg/injection, schedule: Q03HX008 (ip), vehicle: saline) is listed as 8 of 8; the survivor count (dose: 25.0 mg/kg/injection, schedule: Q03HX016 (ip), vehicle: saline) is 8 of 8; the survivor count (dose: 25.0 mg/kg/injection, schedule: Q03HX024 (ip), vehicle: saline) is given as 8 of 8; the survivor count (dose: 30.0 mg/kg/injection, schedule: Q04DX002 (sc), vehicle: Klucel (hydroxypropylcellulose) (HPC)) was 10 of 10; the survivor count (dose: 45.0 mg/kg/injection, schedule: Q04DX002 (sc), vehicle: Klucel (hydroxypropylcellulose) (HPC)) was 10 of 10. The survivor count reads like this: (dose: 50.0 mg/kg/injection, schedule: Q01DX001 (ip), vehicle: saline) 8 of 8; (dose: 50.0 mg/kg/injection, schedule: Q01DX001 (oral), vehicle: saline) 8 of 8; under setting [5], 8 of 8; (dose: 50.0 mg/kg/injection, schedule: Q01DX009 (oral), vehicle: saline) 8 of 8; (dose: 50.0 mg/kg/injection, schedule: Q03HX008 (ip), vehicle: saline) 8 of 8; (dose: 50.0 mg/kg/injection, schedule: Q03HX016 (ip), vehicle: saline) 8 of 8. The survivor count reads like this: (dose: 50.0 mg/kg/injection, schedule: Q03HX024 (ip), vehicle: saline) 8 of 8; (dose: 50.0 mg/kg/injection, schedule: Q04DX003 (ip), vehicle: saline) 8 of 8; (dose: 50.0 mg/kg/injection, schedule: Q08DX002 (ip), vehicle: saline) 8 of 8; (dose: 67.0 mg/kg/injection, schedule: Q04DX002 (sc), vehicle: Klucel (hydroxypropylcellulose) (HPC)) 10 of 10; (dose: 100.0 mg/kg/injection, schedule: Q01DX001 (ip), vehicle: saline) 8 of 8; (dose: 100.0 mg/kg/injection, schedule: Q01DX001 (oral), vehicle: saline) 8 of 8. The survivor count runs as follows: under setting [6], 8 of 8; (dose: 100.0 mg/kg/injection, schedule: Q01DX009 (oral), vehicle: saline) 7 of 8; (dose: 100.0 mg/kg/injection, schedule: Q03HX008 (ip), vehicle: saline) 8 of 8; (dose: 100.0 mg/kg/injection, schedule: Q03HX016 (ip), vehicle: saline) 8 of 8; (dose: 100.0 mg/kg/injection, schedule: Q03HX024 (ip), vehicle: saline) 8 of 8; (dose: 100.0 mg/kg/injection, schedule: Q04DX002 (sc), vehicle: Klucel (hydroxypropylcellulose) (HPC)) 10 of 10. For the same compound, the survivor count (dose: 100.0 mg/kg/injection, schedule: Q04DX003 (ip), vehicle: saline) is recorded as 8 of 8; the survivor count (dose: 100.0 mg/kg/injection, schedule: Q08DX002 (ip), vehicle: saline) is listed as 8 of 8; the survivor count (dose: 133.0 mg/kg/injection, schedule: Q01DX001 (sc), vehicle: Klucel (hydroxypropylcellulose) (HPC)) is given as 10 of 10; the survivor count (dose: 200.0 mg/kg/injection, schedule: Q01DX001 (ip), vehicle: saline) is reported as 8 of 8; the survivor count (dose: 200.0 mg/kg/injection, schedule: Q01DX001 (oral), vehicle: saline) was 8 of 8; the survivor count (dose: 200.0 mg/kg/injection, schedule: Q01DX001 (sc), vehicle: Klucel (hydroxypropylcellulose) (HPC)) is 10 of 10. For the same compound, the survivor count runs as follows: (dose: 200.0 mg/kg/injection, schedule: Q01DX009 (ip), vehicle: saline) 8 of 8; (dose: 200.0 mg/kg/injection, schedule: Q01DX009 (oral), vehicle: saline) 8 of 8; (dose: 200.0 mg/kg/injection, schedule: Q04DX003 (ip), vehicle: saline) 8 of 8; (dose: 200.0 mg/kg/injection, schedule: Q08DX002 (ip), vehicle: saline) 8 of 8; (dose: 300.0 mg/kg/injection, schedule: Q01DX001 (sc), vehicle: Klucel (hydroxypropylcellulose) (HPC)) 10 of 10; (dose: 400.0 mg/kg/injection, schedule: Q01DX001 (ip), vehicle: saline) 8 of 8. In addition, the survivor count (dose: 400.0 mg/kg/injection, schedule: Q01DX001 (oral), vehicle: saline) is listed as 8 of 8; the survivor count (dose: 400.0 mg/kg/injection, schedule: Q01DX009 (ip), vehicle: saline) is listed as 8 of 8; the survivor count (dose: 400.0 mg/kg/injection, schedule: Q01DX009 (oral), vehicle: saline) is given as 7 of 8; the survivor count (dose: 400.0 mg/kg/injection, schedule: Q04DX003 (ip), vehicle: saline) is recorded as 8 of 8; the survivor count (dose: 400.0 mg/kg/injection, schedule: Q08DX002 (ip), vehicle: saline) is recorded as 8 of 8; the survivor count (dose: 450.0 mg/kg/injection, schedule: Q01DX001 (sc), vehicle: Klucel (hydroxypropylcellulose) (HPC)) is 10 of 10. The survivor count (dose: 800.0 mg/kg/injection, schedule: Q01DX001 (ip), vehicle: saline) was 8 of 8; the survivor count (dose: 800.0 mg/kg/injection, schedule: Q01DX001 (oral), vehicle: saline) is reported as 8 of 8; the survivor count (dose: 800.0 mg/kg/injection, schedule: Q01DX009 (oral), vehicle: saline) is given as 8 of 8; the survivor count (dose: 800.0 mg/kg/injection, schedule: Q04DX003 (ip), vehicle: saline) is reported as 8 of 8; the survivor count (dose: 800.0 mg/kg/injection, schedule: Q08DX002 (ip), vehicle: saline) was 8 of 8.

For the compound `COc1ccc2c(c1OC(C)=O)-c1cc(OC(C)=O)cc3c1C(C2)N(C(=O)CN(CCCl)CCCl)CC3` (stereo not drawn), the survivor count is recorded as 2 of 2 under setting [7], 2 of 2 under setting [8] and 2 of 2 under setting [9].

As for `COc1ccc2c3c1OC1C(Oc4nnnn4-c4ccccc4)C=CC4C(C2)N(C)CCC341` (stereo not drawn), the survivor count under setting [1] is 2 of 2, the survivor count under setting [2] is reported as 2 of 2 and the survivor count under setting [3] is 2 of 2.
